This is one part of the list. These are raw signals, not scaled to a control.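 Primary screen: polymyxin B was added at a level permeabilizing Salmonella outer membranes while sparing inner membranes. DMSO wells, both with and without polymyxin B, established maximum growth. Plate-to-plate variation meant each plate was ranked on its own, and the lowest-OD600 compounds were selected as hits.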
System: Salmonella enterica serovar Typhimurium SL1344
Test: bacterial growth OD600 after 18 h with compound and polymyxin B; higher = more bacterial growth (less inhibition)
Conditions: 50 µM, Mueller-Hinton broth

| SMILES | bacterial growth OD600 (polymyxin B 0.75 µg/mL) | bacterial growth OD600 (polymyxin B 1 µg/mL) |
| --- | --- | --- |
| COc1cccc(-c2cc3c(c(OC)c2)OCCN(Cc2ccc(C)cc2)C3)n1 | 0.898 | – |
| COC(=O)c1ccccc1C(=O)N1CCCC(N(C)Cc2ccccc2)C1 (stereo unspecified) | – | 0.989 |
| OCC1CCN(c2nncc(-c3ccc(Cl)cc3)n2)CC1 | 0.592 | – |
| COc1ccc(CN2CCN(Cc3cccc(OC)c3OC)CC2CCO)c(C)c1C (stereo unspecified) | – | 1.01 |
| CCC(=O)N[C@@H]1c2ccccc2C2(CCN(C(=O)c3cc(C)ccc3C)CC2)[C@H]1OCc1cccnc1 | 0.688 | – |
| Cc1nc2ccccc2n1Cc1cc(C(=O)N2CCSCC2)n[nH]1 | – | 0.949 |
| O=C(NCc1ccccn1)c1cccc(OC2CCN(C(=O)c3cscn3)CC2)c1 | – | 0.921 |
| Cn1cc(CN2CCC(C(N)=O)CC2)c(-c2ccc(C3CCCCC3)cc2)n1 | – | 0.811 |
| CCOC(=O)CNC(=O)N1CCCC(C(=O)c2ccc3cc(OC)ccc3c2)C1 (stereo unspecified) | – | 0.766 |
| COCc1ccc(C(=O)Nc2ccc(-c3nc(CNC(=O)C4CCCCC4)c(C)o3)cc2)o1 | 0.657 | – |
| CCc1[nH]c2c(CNC(=O)CCn3cncn3)cc(C)cc2c1C | – | 0.919 |
| COc1ccc(-n2ccnc2CNC2CCCN(c3ncccn3)C2)cc1 (stereo unspecified) | – | 1.03 |
| Cc1ccc(-c2cccc(CN3CCC4(CCCN(C)C4=O)C3)c2)o1 (stereo unspecified) | 0.98 | – |
| CCOC(=O)C1(CCCc2ccccc2)CCN(C(=O)c2cccnc2C)CC1 | – | 0.783 |
| CCN1CCN(C2(C(=O)NCc3cccc4[nH]ccc34)Cc3ccccc3C2)CC1 | 0.859 | – |
| COc1ccccc1CCc1nnc(CCC(=O)NCCSC)o1 | – | 0.852 |

2 records picked at random from those above:

| SMILES | bacterial growth OD600 (polymyxin B 0.75 µg/mL) | bacterial growth OD600 (polymyxin B 1 µg/mL) |
| --- | --- | --- |
| CCN1CCN(C2(C(=O)NCc3cccc4[nH]ccc34)Cc3ccccc3C2)CC1 | 0.859 | – |
| Cn1cc(CN2CCC(C(N)=O)CC2)c(-c2ccc(C3CCCCC3)cc2)n1 | – | 0.811 |

Carrying on:

| SMILES | bacterial growth OD600 (polymyxin B 0.75 µg/mL) | bacterial growth OD600 (polymyxin B 1 µg/mL) |
| --- | --- | --- |
| CCc1ocnc1C(=O)NC1CC(=O)N(CCCc2ccccc2)C1 (stereo unspecified) | – | 1.01 |
| CC(C)Cc1noc(-c2ccc(N3CCCOCC3)nc2)n1 | – | 0.916 |
| CC(C)N1CCC(N2CCCC(C(=O)NC3CCCCC3)C2)CC1 (stereo unspecified) | 0.96 | – |
| c1ccc(Cc2noc(-c3ccc(NCC4COCCO4)nc3)n2)cc1 (stereo unspecified) | 0.792 | – |
| O=C(NCCCc1ccncc1)C1CC12CCN(C(=O)c1ccc(-c3cccc(F)c3)cc1)CC2 (stereo unspecified) | 0.771 | – |
| O=C1CCC(C(=O)N2CCC(Cc3ccccc3)CC2)CN1CCCN1CCOCC1 (stereo unspecified) | – | 0.954 |
| COCCN1CC(C(=O)NCc2ccc(OC(F)(F)F)cc2)CCC1=O (stereo unspecified) | – | 0.954 |
| CN(C)C1CCN(c2nc3nonc3nc2N2CCCCC2)C1 (stereo unspecified) | 0.839 | – |
| Cc1cc(C(F)(F)F)nc(CCNC(=O)Cn2cc(NC(=O)CSc3ccccc3)cn2)n1 | 0.843 | – |
| COc1ccc(OC2CCN(C3CCCC3)CC2)c(C(=O)N2CCN(C)C[C@@H]2C(C)C)c1 | – | 1.27 |
| COC(=O)CCCC(=O)N1CCC(C2CCN(c3ncccn3)CC2)C1 (stereo unspecified) | 0.85 | – |
| COCC1CCCCN1C(=O)c1ccc(OC2CCN(C(=O)C3CC3)CC2)cc1 (stereo unspecified) | – | 0.869 |
| CSc1ccccc1C(=O)NCc1c(C)ncc2c1CCN(C(=O)c1ccc(C)cc1C)C2 | 0.778 | – |
| CCC(COC)NC(=O)C1CCN(c2nc(C)c3ccc(S(C)(=O)=O)cc3n2)CC1 (stereo unspecified) | 0.977 | – |
| COC(=O)c1cc(CNC(=O)c2cccc(OC)c2OC)cc(NC(=O)/C=C/c2cccc(F)c2)c1 | 0.542 | – |

Source: the supplement of paper PMC12889115
